Drawing on the supplement of paper PMC10849652, this text covers log2 fold change for 30 targets.

Sequences of proteins named here, by UniProt entry; tags and fusion partners are left off. A change or cut given only in a name is not applied to a line headed by its entry.
UniProt Q96HP4: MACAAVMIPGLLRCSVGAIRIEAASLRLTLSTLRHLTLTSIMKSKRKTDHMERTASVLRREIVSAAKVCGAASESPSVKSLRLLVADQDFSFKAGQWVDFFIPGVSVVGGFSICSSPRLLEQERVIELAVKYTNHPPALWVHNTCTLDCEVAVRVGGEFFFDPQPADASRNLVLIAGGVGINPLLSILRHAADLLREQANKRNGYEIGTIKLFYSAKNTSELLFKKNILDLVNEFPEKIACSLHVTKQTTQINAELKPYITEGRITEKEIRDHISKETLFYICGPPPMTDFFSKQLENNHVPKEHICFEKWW
UniProt Q9Y5N6: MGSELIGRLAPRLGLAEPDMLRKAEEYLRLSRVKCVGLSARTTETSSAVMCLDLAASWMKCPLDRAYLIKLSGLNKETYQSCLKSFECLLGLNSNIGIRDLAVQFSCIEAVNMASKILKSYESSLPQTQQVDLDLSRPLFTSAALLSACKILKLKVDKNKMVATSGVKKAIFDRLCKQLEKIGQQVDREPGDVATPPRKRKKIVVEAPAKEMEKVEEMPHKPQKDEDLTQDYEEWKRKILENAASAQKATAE
UniProt Q9NZJ9: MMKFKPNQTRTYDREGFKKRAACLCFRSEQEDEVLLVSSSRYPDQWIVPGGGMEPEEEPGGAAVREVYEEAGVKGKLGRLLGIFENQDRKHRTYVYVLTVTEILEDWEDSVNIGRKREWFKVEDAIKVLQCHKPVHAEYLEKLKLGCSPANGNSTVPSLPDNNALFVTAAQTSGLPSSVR
UniProt Q5SWX8: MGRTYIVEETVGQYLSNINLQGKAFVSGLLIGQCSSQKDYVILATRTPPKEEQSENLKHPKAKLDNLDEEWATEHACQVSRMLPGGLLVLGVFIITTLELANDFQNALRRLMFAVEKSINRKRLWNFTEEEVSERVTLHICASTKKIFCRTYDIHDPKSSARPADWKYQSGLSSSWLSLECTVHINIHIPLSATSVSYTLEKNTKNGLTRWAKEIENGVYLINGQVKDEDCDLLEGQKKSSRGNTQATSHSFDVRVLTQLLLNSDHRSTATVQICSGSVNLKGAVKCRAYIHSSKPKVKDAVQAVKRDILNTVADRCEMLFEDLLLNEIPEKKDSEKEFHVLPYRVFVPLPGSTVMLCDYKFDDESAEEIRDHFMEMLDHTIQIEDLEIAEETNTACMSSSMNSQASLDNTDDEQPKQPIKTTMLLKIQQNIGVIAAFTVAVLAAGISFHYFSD
UniProt O43482, whole entry, looked up: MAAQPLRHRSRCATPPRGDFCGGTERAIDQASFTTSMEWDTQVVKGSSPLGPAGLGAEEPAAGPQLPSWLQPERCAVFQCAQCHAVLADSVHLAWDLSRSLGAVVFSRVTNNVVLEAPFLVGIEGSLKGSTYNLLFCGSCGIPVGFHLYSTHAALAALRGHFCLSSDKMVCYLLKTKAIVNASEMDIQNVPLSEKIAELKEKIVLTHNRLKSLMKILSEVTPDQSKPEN
UniProt Q9NTK5, whole entry, looked up: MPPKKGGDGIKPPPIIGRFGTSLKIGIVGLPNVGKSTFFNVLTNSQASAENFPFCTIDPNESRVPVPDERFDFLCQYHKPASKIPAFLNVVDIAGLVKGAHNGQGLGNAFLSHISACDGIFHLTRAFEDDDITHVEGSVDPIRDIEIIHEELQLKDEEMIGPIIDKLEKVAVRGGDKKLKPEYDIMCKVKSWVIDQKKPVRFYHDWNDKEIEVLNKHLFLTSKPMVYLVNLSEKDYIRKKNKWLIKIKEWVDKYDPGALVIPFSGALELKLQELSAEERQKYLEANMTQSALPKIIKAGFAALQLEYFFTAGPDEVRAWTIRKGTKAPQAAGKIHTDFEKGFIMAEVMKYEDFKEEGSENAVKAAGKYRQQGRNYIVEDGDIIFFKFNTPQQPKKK
UniProt Q9Y266: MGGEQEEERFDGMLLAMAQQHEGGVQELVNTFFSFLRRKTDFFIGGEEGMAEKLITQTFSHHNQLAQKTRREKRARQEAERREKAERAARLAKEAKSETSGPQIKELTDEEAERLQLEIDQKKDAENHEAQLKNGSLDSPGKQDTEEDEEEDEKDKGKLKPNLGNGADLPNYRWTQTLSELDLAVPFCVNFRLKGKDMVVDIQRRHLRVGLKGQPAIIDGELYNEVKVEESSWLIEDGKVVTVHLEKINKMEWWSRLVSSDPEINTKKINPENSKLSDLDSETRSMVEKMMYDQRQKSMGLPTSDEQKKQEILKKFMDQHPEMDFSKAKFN
UniProt Q8IVD9: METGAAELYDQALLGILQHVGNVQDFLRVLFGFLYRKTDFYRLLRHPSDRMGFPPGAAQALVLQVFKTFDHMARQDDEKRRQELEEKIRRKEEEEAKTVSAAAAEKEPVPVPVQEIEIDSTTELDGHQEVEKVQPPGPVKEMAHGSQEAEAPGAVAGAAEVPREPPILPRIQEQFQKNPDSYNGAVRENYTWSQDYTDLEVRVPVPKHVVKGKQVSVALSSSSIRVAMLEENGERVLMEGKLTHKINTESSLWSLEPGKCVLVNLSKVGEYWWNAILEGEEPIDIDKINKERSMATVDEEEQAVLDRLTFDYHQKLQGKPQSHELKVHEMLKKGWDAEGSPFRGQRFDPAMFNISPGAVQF
UniProt Q92882: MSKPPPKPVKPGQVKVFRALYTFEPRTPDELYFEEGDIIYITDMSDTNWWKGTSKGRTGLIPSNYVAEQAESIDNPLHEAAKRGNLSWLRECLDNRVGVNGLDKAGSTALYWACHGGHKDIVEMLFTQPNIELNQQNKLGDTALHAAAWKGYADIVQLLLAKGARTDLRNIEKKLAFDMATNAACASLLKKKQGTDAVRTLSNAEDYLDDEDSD
UniProt Q9H0G5: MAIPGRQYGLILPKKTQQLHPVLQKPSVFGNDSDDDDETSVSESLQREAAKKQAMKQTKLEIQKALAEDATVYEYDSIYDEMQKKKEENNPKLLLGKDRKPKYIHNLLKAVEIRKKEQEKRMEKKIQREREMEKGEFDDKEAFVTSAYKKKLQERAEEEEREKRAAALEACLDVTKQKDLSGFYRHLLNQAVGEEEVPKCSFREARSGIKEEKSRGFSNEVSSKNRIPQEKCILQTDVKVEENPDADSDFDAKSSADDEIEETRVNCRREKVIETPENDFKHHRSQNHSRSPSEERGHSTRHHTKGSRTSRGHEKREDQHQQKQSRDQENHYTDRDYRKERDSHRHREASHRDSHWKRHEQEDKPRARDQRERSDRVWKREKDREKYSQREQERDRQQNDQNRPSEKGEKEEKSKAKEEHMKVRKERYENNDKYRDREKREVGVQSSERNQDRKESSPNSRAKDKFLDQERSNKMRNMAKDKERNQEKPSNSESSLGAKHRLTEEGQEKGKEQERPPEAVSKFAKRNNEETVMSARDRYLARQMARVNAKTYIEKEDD
UniProt P49902: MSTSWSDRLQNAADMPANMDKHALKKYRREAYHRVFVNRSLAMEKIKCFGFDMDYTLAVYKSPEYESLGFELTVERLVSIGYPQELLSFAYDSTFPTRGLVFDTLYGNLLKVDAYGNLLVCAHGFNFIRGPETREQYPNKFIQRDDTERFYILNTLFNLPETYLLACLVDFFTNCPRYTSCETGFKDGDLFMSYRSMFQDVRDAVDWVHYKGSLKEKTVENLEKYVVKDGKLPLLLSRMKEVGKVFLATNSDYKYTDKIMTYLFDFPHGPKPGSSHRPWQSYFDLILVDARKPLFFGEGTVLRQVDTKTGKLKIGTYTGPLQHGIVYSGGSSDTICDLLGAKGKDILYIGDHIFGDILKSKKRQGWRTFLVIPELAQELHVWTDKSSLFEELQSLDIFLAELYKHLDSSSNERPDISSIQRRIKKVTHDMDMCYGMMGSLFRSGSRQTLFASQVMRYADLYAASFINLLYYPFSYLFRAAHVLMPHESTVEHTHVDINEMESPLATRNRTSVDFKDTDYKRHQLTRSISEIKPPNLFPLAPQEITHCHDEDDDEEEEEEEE
UniProt Q6ZVK8: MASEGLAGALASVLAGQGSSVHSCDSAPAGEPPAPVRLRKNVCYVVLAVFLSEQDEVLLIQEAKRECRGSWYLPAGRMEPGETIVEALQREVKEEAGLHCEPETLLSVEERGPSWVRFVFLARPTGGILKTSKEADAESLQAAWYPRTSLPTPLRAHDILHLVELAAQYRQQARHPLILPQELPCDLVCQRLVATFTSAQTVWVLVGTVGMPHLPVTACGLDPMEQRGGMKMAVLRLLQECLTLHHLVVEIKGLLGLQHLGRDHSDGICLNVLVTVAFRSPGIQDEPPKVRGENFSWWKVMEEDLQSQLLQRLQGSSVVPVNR
UniProt P49790, whole entry, looked up: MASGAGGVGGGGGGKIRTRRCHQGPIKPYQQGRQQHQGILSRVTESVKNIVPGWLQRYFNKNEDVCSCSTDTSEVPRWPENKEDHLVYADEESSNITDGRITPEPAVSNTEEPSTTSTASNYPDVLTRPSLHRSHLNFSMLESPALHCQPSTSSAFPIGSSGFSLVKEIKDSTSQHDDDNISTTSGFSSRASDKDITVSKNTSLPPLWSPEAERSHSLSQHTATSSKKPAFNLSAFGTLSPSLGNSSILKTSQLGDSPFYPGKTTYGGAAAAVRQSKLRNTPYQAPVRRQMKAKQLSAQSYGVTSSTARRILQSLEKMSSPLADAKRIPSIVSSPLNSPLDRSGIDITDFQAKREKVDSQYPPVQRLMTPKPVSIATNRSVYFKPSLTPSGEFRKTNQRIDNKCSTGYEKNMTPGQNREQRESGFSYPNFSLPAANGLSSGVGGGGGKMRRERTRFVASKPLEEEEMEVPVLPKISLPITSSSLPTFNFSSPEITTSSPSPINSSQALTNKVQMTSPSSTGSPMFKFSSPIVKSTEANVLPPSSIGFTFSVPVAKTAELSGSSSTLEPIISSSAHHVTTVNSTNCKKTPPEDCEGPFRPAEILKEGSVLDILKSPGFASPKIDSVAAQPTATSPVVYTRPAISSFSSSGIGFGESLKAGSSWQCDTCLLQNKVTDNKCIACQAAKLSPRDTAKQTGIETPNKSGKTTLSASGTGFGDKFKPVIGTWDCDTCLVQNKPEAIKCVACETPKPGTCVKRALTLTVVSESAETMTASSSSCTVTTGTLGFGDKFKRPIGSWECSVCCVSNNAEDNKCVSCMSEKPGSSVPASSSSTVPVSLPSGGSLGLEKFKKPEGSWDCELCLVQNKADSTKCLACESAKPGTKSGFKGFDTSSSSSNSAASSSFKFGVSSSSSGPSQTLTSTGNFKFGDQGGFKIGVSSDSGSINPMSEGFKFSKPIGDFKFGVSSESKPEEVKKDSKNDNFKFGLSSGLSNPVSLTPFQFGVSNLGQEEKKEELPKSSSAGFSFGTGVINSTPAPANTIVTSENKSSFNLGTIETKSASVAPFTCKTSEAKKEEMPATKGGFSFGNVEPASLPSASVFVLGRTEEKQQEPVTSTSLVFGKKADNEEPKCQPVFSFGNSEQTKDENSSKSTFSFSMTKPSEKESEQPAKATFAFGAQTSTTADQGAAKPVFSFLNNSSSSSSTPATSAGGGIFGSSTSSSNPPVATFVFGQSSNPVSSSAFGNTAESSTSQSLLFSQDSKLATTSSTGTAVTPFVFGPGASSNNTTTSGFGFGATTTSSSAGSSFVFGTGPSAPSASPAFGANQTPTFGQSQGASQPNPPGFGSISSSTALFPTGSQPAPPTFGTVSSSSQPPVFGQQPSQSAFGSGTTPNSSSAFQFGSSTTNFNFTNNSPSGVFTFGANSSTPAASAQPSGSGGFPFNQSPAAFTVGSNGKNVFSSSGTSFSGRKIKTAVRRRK
UniProt Q9BRJ7: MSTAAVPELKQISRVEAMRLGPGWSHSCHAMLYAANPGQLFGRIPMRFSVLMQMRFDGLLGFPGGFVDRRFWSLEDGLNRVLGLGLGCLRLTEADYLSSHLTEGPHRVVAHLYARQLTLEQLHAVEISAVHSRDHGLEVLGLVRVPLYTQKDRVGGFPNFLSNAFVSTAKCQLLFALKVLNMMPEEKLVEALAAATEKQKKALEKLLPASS
UniProt Q32P28: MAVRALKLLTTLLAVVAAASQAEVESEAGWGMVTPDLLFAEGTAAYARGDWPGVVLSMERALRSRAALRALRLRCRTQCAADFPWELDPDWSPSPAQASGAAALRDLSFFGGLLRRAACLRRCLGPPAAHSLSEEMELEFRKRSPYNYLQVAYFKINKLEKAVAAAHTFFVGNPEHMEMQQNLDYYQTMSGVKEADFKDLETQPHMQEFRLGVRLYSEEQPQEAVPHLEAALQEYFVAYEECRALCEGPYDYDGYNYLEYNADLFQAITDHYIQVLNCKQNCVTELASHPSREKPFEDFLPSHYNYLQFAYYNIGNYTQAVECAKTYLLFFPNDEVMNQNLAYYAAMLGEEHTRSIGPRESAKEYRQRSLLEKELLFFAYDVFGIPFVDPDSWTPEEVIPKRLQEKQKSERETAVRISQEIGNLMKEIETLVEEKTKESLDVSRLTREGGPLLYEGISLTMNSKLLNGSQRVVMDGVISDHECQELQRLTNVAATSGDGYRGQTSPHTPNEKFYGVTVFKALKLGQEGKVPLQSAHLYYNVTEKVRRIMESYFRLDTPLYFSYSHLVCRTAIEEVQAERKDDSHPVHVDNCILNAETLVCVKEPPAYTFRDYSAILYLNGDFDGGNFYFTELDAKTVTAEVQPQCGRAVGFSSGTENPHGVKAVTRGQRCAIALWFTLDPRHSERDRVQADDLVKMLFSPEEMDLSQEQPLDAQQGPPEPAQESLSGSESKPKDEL

The list shows a part of the results.

Compound in this test: c1cn2cc(-c3ccc4cn[nH]c4c3)nc(Nc3ccc(N4CCOCC4)cc3)c2n1 [entospletinib]
Briefly: log2 fold change, soluble protein after heating vs DMSO (PISA); higher = thermal stabilisation; K562 cells, 10 uM, 30 min; active = over 0.2 and 3.5 SD of the protein, either way, in both replicates (recomputed). The procedure, abridged:
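K562 cells at 2×10^6 cells/mL were exposed to 10 μM compound for 30 min, then aliquots were heated for 3 min across 48°C-58°C, pooled, and extracted in PBS containing 0.5% NP-40 at 4°C. The supernatant after 21,000xg for 90 min was taken as soluble protein and measured by TMTpro 16plex LC-MS/MS with channel sums equalised. Thermal stability is reported relative to control samples, with values from duplicates. Fold changes are given on a log2 scale.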
For NTPCR (UniProt Q9BSD7), the log2 fold change was inactive: 0.

As to NUP133 (UniProt Q8WUM0), the log2 fold change was inactive: 0.077.

Regarding NUDT5 (UniProt Q9UKK9), the log2 fold change is inactive: -0.017. For the target NT5C (UniProt Q8TCD5), the log2 fold change is inactive: -0.005. Regarding OXNAD1 (UniProt Q96HP4), the log2 fold change was inactive: -0.002. Regarding NUBPL (UniProt Q8TB37), the log2 fold change is inactive: -0.062. Take ORC6 (UniProt Q9Y5N6): the log2 fold change was inactive: -0.122. To NUDT4 (UniProt Q9NZJ9) belongs inactive: -0.043; to ODR4 (UniProt Q5SWX8), inactive: 0.015. Consider OIP5 (UniProt O43482), for which the log2 fold change is inactive: 0.087.

For the target NUP188 (UniProt Q5SRE5), the log2 fold change is inactive: -0.016.

As for NUS1 (UniProt Q96E22), the log2 fold change was inactive: -0.037.

Turning to OLA1 (UniProt Q9NTK5), the log2 fold change is inactive: -0.064. Consider NUDC (UniProt Q9Y266), for which the log2 fold change was inactive: 0.04. Consider NUDCD3 (UniProt Q8IVD9), for which the log2 fold change was inactive: 0.019. Then OSTF1 (UniProt Q92882), with inactive: 0.073; and NUDT15 (UniProt Q9NV35), with inactive: -0.033; and NUP50 (UniProt Q9UKX7), with inactive: -0.035. As for NSRP1 (UniProt Q9H0G5), the log2 fold change is inactive: 0.08.

With NT5C2 (UniProt P49902), the log2 fold change is inactive: -0.07. Take NUDT19 (UniProt A8MXV4): the log2 fold change was inactive: -0.003.

As for NUDT18 (UniProt Q6ZVK8), the log2 fold change was inactive: -0.281. On to NUP35 (UniProt Q8NFH5), for which the log2 fold change is inactive: 0.007. To NUP153 (UniProt P49790) belongs inactive: 0.024. Consider NUDT16L1 (UniProt Q9BRJ7), for which the log2 fold change is inactive: -0.011. For the target OPLAH (UniProt O14841), the log2 fold change is inactive: 0.041. Regarding NUP43 (UniProt Q8NFH3), the log2 fold change is inactive: -0.031. Regarding P3H1 (UniProt Q32P28), the log2 fold change was inactive: 0.016. On to ODF2L isoform 4 (UniProt Q9ULJ1), for which the log2 fold change is inactive: -0.143. Take OBSCN (UniProt A6NGQ3): the log2 fold change is inactive: 0.068.
